Test results published in PMC4814920.
Results are given in words; binding and its absence hold for the method and conditions named.

Target: recombinant shewasin D (Shewanella denitrificans) (UniProt Q12R32)
Assay: SEC; analytical size exclusion under non-denaturing conditions, Superose 12, 20 mM Tris-HCl pH 8.0 with 150 mM NaCl, calibrated with mass markers (13.7-158 kDa); estimated mass ~50 kDa against a theoretical 49025 Da; both purified

B1: recombinant shewasin D (enzyme, UniProt Q12R32 1-429)
chain: MSKHFIPLPLTNVLADGGYSASVCLGSQLAKVNLIIDTGSSTLVVHENRYQGMHDTRLQSTSLAQQVSYGVGGWFGSVVHTRFNILDVSVDDMPLALVHHEAEHSFINADGIWGMAYHSLNRSYDMSEYLTANAIAPPATYPWPFPENDQPQFPLPEFQSEASDFKQLIHGLPEQDVATAFTLMEQQGLVSNRFAFIAHRSSIHHAKANMTPESLALDPLNQGMLILGGDERLSQYFQGEFTDLKVVHDRYYNVNLLSLSLAGGAPIKLPSALEAQLSRGSSNAIIDTGASLVSLPSQAFTQVIAELSQTVPQAAKLLAPFIGDINKVTQAQSQGIAMSELNLALWPALEFHFEGAADGRASLSCPAECYWQLNSPAPGRAVFKLMGQLAGWPAQSILGLPLLNPYFVLFQRDSGEFGTVRFAAHRQKS
In the case of B1, the binding is reported as “no binding”.
